The whole screen tested about 350,000 compounds, of which about 1,200 (0.34%) were called active. The shares of active, inactive and inconclusive entries below differ from those in the screen. The call rests on the fitted dose curve; in most records, active means well fitted inhibition curve with a large enough effect; inconclusive means small, poorly fitted or top-dose-only effect; inactive means no such curve, though single readings can be large or run the other way. Potencies of inconclusive entries are doubtful fits and often do not repeat.
target: DNA repair nuclease/redox regulator APEX1 (Homo sapiens) (UniProt P27695); assay: qHTS Assay for Inhibitors of the Human Apurinic/apyrimidinic Endonuclease 1 (APE1); conditions: recombinant APE1, TAMRA/BHQ-2 abasic DNA cleavage fluorescence; activity change, negative = inhibition: at 65.8 µM (top of the series); further: nearly all actives have a fitted effect of over 55% in size;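 on activity change, negative = inhibition: plate controls were vehicle for no effect and reference inhibitor for full effect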
In short: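 Kinetic fluorescence read (525 ex/598 em nm, three reads 60 s apart) of AP-site incision; signal = third minus first read. Enzyme 0.75 nM, dual-labelled THF duplex 50 nM, compound preincubation 15 min RT.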
Potency means the concentration at half of the fitted maximal effect.

By UniProt entry, the sequences of proteins in these tests, tags left out.
UniProt P27695, whole entry, looked up: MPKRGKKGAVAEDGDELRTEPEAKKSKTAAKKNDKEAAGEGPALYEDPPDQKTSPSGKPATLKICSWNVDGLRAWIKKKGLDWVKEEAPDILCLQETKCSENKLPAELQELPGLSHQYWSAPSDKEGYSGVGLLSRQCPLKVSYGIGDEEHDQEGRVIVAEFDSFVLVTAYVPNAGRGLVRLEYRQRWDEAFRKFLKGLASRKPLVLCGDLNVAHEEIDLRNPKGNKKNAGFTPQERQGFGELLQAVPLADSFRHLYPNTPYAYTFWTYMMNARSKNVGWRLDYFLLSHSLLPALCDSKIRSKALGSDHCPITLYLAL

Q: How did the “activity change, negative = inhibition” value turn out when `COc1ccc(CNC(=O)C(=O)NCC2CCCN2S(=O)(=O)c2cccs2)cc1` (stereo not given) was run?
A: Its value is inactive: 4.02%.

Q: For `COc1cccc(-c2ccc3ncnc(N(C)Cc4ccco4)c3c2)c1`, which Potency is on record?
A: Its Potency is inconclusive: 8.91 µM [inhibitor, full curve, poor fit].

Q: `COc1cccc(C(=O)NN2CC(O)=C(c3nc4ccccc4s3)C2=N)c1` was tested. Which “activity change, negative = inhibition” value did it give?
A: The value was inactive: -0.837%.

Q: `CCOC(=O)c1c(C)[nH]c(C(=O)Nc2ccc(NC(C)=O)cc2)c1C` was tested. Which Potency did it give?
A: The Potency was inconclusive: 25.1 µM [inhibitor, single point].

Q: For `C[C@@H]1C=C[C@](Cc2ccccc2)(C(=O)NCCCNc2ncc(C(F)(F)F)cc2Cl)N1C(=O)c1ccccc1`, which Potency is on record?
A: The Potency was inconclusive: 28.2 µM [inhibitor, partial curve].

Q: `CCN(CC)S(=O)(=O)c1cccc(C(=O)N/N=C2\CC(=O)CC(C)(C)C2)c1` was tested. Which Potency did it give?
A: The Potency was inconclusive: 44.7 µM [inhibitor, single point].

Q: Which Potency does the source give for `CC(=O)NC(CC(=O)OCC(=O)c1ccc(NC(=O)CC(C)C)cc1)c1ccccc1` (stereo not given) here?
A: The Potency was inconclusive: 15 µM [inhibitor, partial curve].

Q: `Cc1cc(C=O)c(C)n1-c1cccc(C(=O)O)c1` was tested. Which Potency did it give?
A: Its Potency is active: 22.4 µM.

Q: For `CCc1cc2c(C)cc(C)cc2nc1SCC(=O)Nc1cc(C)on1`, which Potency is on record?
A: The Potency was inconclusive: 5.01 µM [inhibitor, full curve].

Q: `OC[C@H]1O[C@@H](Oc2cc(O)cc(/C=C/c3ccc(O)cc3)c2)[C@H](O)[C@@H](O)[C@@H]1O` was tested. Which Potency did it give?
A: Its Potency is inconclusive: 35.5 µM [inhibitor, single point].

Q: How did the “activity change, negative = inhibition” value turn out when `CCN(CC)c1ccc(/C=N/N2CCOCC2)c(O)c1` was run?
A: Its value is inactive: -1.33%.

Q: Which Potency does the source give for `COC(=O)c1ccccc1NC(=O)Nc1cc(C)ccn1` here?
A: Its Potency is inconclusive: 5.01 µM [inhibitor, full curve].

Q: `Cc1ccc(NC(=O)C2CCCN(C(=O)c3ccc(Cl)cc3)C2)cc1C` (stereo not given) was tested. Which “activity change, negative = inhibition” value did it give?
A: Its value is inactive: -3.3%.

Q: With `COc1ccc(/C=C2\SC(=S)N(CCCC(=O)Nc3ccc(C(=O)O)cc3)C2=O)cc1OC` as the molecule, how does the Potency read?
A: Its Potency is inconclusive: 29.9 µM [inhibitor, single point].

Q: How did the activity change, negative = inhibition turn out when `CCOc1ccccc1N1CC(C(=O)N2CCN(Cc3ccc(C#N)cc3)CC2)CC1=O` (stereo not given) was run?
A: Its activity change, negative = inhibition is inconclusive: -2.75% [inhibitor].

Q: How did the Potency turn out when `CC1CCC/C(=N\NC(=S)Nc2ccccc2)C1` (stereo not given) was run?
A: The Potency was inconclusive: 8.91 µM [inhibitor, single point].

Q: `COC(=O)Cc1csc(Nc2ccc(F)c(Cl)c2)n1` was tested. Which Potency did it give?
A: Its Potency is inconclusive: 6.31 µM [inhibitor, partial curve, poor fit].

Q: For `Oc1ccc2c(c1)OC(c1ccc(O)c(O)c1)C(O)C2` (stereo not given), which Potency is on record?
A: The Potency was inconclusive: 15.8 µM [inhibitor, partial curve].

Q: For `O=C(COc1ncnc2c(Cl)cc(Cl)cc12)N1CCN(S(=O)(=O)c2ccccc2)CC1`, which Potency is on record?
A: Its Potency is inconclusive: 39.8 µM [inhibitor, single point].

Q: How did the “activity change, negative = inhibition” value turn out when `CCOC(=O)c1c(C)n(-c2ccc(C)cc2)c2ccc(OCC(O)CNCC3CCCO3)cc12` (stereo not given) was run?
A: Its value is inactive: -10.4%.

Q: How did the Potency turn out when `CC(C)n1c(SCC(=O)Nc2ccc3c(c2)OCO3)nc2c1c(=O)n(C)c(=O)n2C` was run?
A: Its Potency is inconclusive: 8.91 µM [inhibitor, single point].

Q: `Cc1ccc2nc(-c3ccc(N4C(=NC(=O)CCC(=O)O)SC5CS(=O)(=O)CC54)cc3)sc2c1` (stereo not given) was tested. Which Potency did it give?
A: The Potency was inconclusive: 7.94 µM [inhibitor, single point].

Q: Which Potency does the source give for `Cc1ccccc1N1CCN(C(=O)c2ccccc2NC(=O)c2ccccc2C(=O)O)CC1` here?
A: The Potency was inconclusive: 44.7 µM [inhibitor, single point].

Q: How did the Potency turn out when `CCc1nnc(NS(=O)(=O)c2ccc(NC(=O)c3cc4ccccc4oc3=O)cc2)s1` was run?
A: The Potency was inconclusive: 39.8 µM [inhibitor, single point].

Q: `CCCS(=O)(=O)c1c(S(=O)(=O)CCC)c2cnccn2c1C(=O)c1ccc(OC)cc1` was tested. Which Potency did it give?
A: Its Potency is inconclusive: 4.47 µM [inhibitor, single point].

Q: How did the “activity change, negative = inhibition” value turn out when `Cc1c(NS(=O)(=O)c2ccccc2)c(=O)n(-c2ccccc2)n1C` was run?
A: The value was inactive: -1.56%.

Q: Which Potency does the source give for `Cc1c(NC(=O)C(C)OC(=O)c2ccc([N+](=O)[O-])s2)c(=O)n(-c2ccccc2)n1C` (stereo not given) here?
A: Its Potency is inconclusive: 35.5 µM [inhibitor, single point].

Q: For `O=C(Nc1ccc(Oc2ccc(Cl)cc2)c(Cl)c1)c1cc(I)cc(I)c1O`, which “activity change, negative = inhibition” value is on record?
A: The value was inactive: -10.3%.

Q: Which Potency does the source give for `CCCNC(=O)COC(=O)c1ccc(Cl)c(S(=O)(=O)N2CCCC2)c1` here?
A: Its Potency is inconclusive: 22.4 µM [inhibitor, partial curve].

Q: `O=C(C1CCCCC1)N1CCCc2ccccc21` was tested. Which Potency did it give?
A: The Potency was inconclusive: 5.01 µM [inhibitor, single point].

Q: How did the “activity change, negative = inhibition” value turn out when `Nc1nc(-c2ccccc2)c(N=Nc2ccccc2Cl)s1` was run?
A: Its value is inactive: -7.19%.

Q: How did the Potency turn out when `CCOc1cc(/C=N/NC(=O)c2cccnc2)ccc1OCC(=O)N1CCOCC1` was run?
A: Its Potency is inconclusive: 0.02 µM [inhibitor, full curve, poor fit].

Q: With `C[C@H]1c2cccc(O)c2C(O)=C2C(=O)C3(O)C(O)=C(C(N)=O)C(=O)[C@@H](N(C)C)[C@@H]3[C@@H](O)[C@@H]21` (stereo not given in full) as the molecule, how does the “activity change, negative = inhibition” value read?
A: Its value is inactive: -7.31%.

Q: With `O=C(CN1CCCCC1)N/N=C/c1cc2ccccc2nc1Cl` as the molecule, how does the Potency read?
A: The Potency was inconclusive: 3.16 µM [inhibitor, single point].

Q: For `Nc1nonc1-n1nnc(C(=O)N/N=C/C=C/c2ccccc2)c1CSC1=NCCS1`, which Potency is on record?
A: The Potency was inconclusive: 44.7 µM [inhibitor, single point].

Q: For `CCOC(=O)C(NC(=O)c1ccccc1)(OCc1ccccc1)C(F)(F)F` (stereo not given), which Potency is on record?
A: Its Potency is inconclusive: 0.891 µM [inhibitor, full curve, poor fit].

Q: `COc1cc(-c2cccc([C@H]3[C@@H]4C=CC[C@@H](C)[C@@H]4C(=O)N3Cc3ccccc3)c2)cc(OC)c1OC` was tested. Which Potency did it give?
A: The Potency was inconclusive: 39.8 µM [inhibitor, partial curve, poor fit].

Q: `Cc1csc(=Nc2c(C)n(C)n(-c3ccccc3)c2=O)n1-c1ccccc1` was tested. Which Potency did it give?
A: The Potency was inconclusive: 0.794 µM [inhibitor, full curve, poor fit].

Q: How did the Potency turn out when `c1ccc(-c2ccc(-c3ccccn3)s2)nc1` was run?
A: Its Potency is inconclusive: 3.16 µM [inhibitor, single point].

Q: `COCCCNC(=O)c1cccn2c(=O)c3cc4ccccc4cc3nc12` was tested. Which Potency did it give?
A: The Potency was inconclusive: 14.1 µM [inhibitor, partial curve].

Source: PubChem BioAssay AID2517 (National Center for Advancing Translational Sciences (NCATS), 2010)
